Measurements from patent publication EP4052593B1, “TOBACCO FILLER FOR HEAT-NOT-BURN TOBACCO PRODUCTS, HEAT-NOT-BURN TOBACCO PRODUCT, AND ELECTRICALLY HEATED TOBACCO PRODUCT” (Japan Tobacco Inc., priority 2019, dated 2021).

system: in-house panelists; experiment: Sensory evaluation test (use test, visual analog scale method) of feeling of smoking (cigarette-like); format: in vivo; details: Experimental Example 1, Fig. 5 and Fig. 6

Structure (SMILES)	feeling of smoking (result in words)
CCCCCCCCCCCCCCCCCCC(=O)O [Comparative Example 5, Nonadecanoic acid]	effect was also confirmed

same assay, conditions: Experimental Example 1; VAS method, 10 panelists; heater 320°C; substance sprayed on tobacco sheet at the weight addition ratio of Table 1 (0.9-5.1 %)

Structure (SMILES)	Feeling of smoking (cigarette-like) Difference between additive-containing lot and additive-free lot
CCCCCCCC(=O)O [Comparative Example 2, Octanoic acid]	-30.9
CCCCCCCCCC(=O)O [Comparative Example 3, Decanoic acid]	-24.4
CCCCCCCCCCCCCC(=O)O [Comparative Example 4, Myristic acid]	-1.7
CCCCCCCCCCCCCCCCCCC(=O)O [Comparative Example 5, Nonadecanoic acid]	5.4
CCCCC/C=C\C/C=C\CCCCCCCC(=O)O [Comparative Example 7, Linoleic acid]	-8.1
CCCCCCCC/C=C\CCCCCCCC(=O)O [Comparative Example 8, Oleic acid]	-25.7
CCCCCCCCCCCCCCCC(=O)O [Example 1, Palmitic acid]	8.5
CCCCCCCCCCCCCCCCCC(=O)O [Example 2, Stearic acid]	9.9
